Test results reported in the supplement of paper PMC10849652.
This is one part of the list.

Chains of the proteins cited; added tags and fusions are not shown. Lines headed by an entry give the natural chain unless they say otherwise; changes in a name come on top.
UniProt Q9H5L6: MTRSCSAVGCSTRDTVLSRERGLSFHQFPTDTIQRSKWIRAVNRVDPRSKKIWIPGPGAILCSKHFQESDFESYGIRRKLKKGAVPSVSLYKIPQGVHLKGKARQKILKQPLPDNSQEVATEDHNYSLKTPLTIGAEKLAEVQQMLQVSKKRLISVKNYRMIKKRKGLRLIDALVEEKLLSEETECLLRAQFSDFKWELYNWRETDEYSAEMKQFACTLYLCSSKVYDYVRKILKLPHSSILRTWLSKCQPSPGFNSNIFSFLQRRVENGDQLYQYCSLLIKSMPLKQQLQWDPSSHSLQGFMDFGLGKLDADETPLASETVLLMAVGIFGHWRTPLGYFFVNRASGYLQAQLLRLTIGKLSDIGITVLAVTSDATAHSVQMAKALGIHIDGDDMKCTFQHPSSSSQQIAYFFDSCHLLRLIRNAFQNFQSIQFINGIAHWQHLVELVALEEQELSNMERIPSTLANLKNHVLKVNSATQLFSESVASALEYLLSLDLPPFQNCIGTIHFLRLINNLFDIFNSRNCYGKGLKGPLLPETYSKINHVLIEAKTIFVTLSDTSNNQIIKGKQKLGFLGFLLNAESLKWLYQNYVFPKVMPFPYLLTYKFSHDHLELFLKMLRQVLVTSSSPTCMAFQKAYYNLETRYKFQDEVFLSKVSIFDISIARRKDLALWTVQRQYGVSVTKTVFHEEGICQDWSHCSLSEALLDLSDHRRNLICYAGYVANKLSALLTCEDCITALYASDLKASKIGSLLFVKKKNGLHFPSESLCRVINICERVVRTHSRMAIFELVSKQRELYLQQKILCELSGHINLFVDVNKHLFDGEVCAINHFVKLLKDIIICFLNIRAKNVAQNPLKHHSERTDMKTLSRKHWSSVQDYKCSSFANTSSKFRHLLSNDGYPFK
UniProt Q9NPI0: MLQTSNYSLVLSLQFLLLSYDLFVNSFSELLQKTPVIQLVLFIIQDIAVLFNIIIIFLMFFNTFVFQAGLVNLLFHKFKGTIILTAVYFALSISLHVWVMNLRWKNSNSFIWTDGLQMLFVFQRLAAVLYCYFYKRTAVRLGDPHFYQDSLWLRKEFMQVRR
UniProt Q1AE95: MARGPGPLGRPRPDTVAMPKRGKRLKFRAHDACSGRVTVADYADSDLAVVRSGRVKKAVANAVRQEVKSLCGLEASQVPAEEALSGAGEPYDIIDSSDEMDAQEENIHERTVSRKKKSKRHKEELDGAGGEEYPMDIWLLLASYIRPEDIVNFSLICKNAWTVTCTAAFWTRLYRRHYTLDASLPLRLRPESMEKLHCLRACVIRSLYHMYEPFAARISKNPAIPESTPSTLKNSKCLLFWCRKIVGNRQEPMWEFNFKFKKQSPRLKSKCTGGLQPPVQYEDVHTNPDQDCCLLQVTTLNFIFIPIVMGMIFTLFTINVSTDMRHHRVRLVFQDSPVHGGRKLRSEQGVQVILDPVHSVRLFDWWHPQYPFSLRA
UniProt Q15583: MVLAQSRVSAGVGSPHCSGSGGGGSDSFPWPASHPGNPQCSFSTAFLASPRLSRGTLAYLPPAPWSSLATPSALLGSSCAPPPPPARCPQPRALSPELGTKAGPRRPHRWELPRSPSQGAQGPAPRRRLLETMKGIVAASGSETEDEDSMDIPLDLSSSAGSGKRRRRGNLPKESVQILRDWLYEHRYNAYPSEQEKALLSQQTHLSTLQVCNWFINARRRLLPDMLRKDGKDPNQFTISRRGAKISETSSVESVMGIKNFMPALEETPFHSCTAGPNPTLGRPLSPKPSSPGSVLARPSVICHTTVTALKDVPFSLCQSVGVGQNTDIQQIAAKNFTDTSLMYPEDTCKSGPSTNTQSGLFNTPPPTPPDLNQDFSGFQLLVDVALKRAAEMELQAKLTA
UniProt O94876, whole entry, looked up: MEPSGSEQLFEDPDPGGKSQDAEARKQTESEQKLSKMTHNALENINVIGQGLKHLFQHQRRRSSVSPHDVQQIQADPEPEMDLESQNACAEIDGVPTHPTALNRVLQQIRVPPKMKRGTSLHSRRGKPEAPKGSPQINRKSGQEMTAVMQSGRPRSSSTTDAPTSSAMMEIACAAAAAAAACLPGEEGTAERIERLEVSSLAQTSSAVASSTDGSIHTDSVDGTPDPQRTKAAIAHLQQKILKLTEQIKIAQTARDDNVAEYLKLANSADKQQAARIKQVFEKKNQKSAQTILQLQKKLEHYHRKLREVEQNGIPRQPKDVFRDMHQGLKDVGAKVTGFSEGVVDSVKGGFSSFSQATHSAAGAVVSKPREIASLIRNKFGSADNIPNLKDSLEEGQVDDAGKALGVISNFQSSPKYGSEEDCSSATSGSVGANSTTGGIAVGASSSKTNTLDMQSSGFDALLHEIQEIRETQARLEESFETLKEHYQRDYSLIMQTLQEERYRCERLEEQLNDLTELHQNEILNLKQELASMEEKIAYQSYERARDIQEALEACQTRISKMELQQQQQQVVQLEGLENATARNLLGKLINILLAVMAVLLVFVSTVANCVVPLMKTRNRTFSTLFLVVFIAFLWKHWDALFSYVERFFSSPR
UniProt Q8TDI8: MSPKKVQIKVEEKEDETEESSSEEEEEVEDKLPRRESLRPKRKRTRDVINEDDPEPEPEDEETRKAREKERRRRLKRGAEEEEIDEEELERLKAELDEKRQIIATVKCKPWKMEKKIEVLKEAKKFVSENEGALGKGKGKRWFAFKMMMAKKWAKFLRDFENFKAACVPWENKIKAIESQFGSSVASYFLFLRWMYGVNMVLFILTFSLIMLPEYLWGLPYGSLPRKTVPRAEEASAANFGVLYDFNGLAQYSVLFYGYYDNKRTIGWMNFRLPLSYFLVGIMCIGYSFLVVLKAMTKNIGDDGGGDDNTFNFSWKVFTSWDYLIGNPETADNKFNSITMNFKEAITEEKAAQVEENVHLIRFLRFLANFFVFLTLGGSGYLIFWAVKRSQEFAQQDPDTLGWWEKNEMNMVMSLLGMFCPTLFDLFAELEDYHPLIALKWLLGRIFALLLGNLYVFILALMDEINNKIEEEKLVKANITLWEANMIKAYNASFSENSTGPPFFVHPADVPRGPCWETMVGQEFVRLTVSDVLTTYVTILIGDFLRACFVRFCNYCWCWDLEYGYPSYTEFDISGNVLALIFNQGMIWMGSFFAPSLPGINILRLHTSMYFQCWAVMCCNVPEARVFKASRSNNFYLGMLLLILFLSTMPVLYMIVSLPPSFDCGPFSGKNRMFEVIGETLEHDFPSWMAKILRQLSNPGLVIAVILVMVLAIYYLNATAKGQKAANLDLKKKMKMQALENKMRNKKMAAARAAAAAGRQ
UniProt Q92545: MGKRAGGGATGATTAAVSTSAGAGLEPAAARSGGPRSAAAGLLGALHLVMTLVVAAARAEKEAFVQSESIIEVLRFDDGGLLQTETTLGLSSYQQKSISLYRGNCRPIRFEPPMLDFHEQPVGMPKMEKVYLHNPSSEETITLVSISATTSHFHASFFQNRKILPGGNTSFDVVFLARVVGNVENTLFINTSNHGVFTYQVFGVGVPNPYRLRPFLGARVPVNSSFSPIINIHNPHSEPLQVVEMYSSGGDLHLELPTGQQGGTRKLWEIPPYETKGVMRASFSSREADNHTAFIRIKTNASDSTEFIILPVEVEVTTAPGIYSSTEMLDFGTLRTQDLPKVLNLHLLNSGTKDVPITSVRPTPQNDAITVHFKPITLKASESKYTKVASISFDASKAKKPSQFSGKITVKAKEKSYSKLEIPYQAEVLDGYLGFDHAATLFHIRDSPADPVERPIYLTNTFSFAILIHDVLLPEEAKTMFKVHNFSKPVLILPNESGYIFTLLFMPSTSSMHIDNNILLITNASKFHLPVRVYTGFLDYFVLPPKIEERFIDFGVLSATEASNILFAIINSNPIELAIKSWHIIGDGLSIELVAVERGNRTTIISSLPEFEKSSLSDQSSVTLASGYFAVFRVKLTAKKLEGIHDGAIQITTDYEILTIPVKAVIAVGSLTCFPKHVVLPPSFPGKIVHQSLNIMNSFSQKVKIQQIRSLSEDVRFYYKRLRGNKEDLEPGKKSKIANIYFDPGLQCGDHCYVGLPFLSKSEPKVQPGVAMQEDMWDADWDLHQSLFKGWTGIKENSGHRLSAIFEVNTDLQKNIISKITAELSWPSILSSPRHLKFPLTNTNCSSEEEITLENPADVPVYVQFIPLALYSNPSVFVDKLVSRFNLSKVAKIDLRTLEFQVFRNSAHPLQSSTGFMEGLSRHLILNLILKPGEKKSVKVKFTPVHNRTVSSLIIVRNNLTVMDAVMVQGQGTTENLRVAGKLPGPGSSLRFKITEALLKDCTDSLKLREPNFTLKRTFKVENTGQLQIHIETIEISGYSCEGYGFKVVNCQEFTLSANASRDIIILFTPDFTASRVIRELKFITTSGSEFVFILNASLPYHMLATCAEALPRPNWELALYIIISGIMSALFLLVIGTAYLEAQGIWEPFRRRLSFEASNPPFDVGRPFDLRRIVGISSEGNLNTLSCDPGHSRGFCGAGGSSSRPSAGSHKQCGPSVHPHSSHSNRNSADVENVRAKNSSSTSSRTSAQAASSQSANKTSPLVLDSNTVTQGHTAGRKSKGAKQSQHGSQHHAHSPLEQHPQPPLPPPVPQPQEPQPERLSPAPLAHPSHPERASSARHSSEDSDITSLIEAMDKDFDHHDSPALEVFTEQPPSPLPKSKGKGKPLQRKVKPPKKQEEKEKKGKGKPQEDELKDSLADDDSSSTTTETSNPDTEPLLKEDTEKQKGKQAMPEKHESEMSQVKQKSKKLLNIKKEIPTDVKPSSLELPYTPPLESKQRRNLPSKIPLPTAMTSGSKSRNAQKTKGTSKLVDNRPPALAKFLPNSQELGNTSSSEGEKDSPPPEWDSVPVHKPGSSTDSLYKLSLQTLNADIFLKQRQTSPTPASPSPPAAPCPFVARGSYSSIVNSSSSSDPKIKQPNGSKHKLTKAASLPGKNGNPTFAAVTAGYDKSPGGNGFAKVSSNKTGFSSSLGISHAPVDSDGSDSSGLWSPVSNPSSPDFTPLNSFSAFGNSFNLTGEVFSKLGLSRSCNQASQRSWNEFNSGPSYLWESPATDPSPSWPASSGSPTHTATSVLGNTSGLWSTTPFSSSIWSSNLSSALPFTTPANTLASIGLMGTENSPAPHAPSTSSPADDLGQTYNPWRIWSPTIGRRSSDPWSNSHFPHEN
UniProt Q9BT49: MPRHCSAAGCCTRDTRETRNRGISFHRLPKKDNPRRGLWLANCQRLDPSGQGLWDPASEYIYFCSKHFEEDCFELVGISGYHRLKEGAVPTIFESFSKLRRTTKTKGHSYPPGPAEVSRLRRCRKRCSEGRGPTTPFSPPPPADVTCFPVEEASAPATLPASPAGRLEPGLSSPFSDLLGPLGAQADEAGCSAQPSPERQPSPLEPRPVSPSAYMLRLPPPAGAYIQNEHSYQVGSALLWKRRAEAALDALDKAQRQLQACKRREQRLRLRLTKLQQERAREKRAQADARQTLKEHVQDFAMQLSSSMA
UniProt Q7Z402: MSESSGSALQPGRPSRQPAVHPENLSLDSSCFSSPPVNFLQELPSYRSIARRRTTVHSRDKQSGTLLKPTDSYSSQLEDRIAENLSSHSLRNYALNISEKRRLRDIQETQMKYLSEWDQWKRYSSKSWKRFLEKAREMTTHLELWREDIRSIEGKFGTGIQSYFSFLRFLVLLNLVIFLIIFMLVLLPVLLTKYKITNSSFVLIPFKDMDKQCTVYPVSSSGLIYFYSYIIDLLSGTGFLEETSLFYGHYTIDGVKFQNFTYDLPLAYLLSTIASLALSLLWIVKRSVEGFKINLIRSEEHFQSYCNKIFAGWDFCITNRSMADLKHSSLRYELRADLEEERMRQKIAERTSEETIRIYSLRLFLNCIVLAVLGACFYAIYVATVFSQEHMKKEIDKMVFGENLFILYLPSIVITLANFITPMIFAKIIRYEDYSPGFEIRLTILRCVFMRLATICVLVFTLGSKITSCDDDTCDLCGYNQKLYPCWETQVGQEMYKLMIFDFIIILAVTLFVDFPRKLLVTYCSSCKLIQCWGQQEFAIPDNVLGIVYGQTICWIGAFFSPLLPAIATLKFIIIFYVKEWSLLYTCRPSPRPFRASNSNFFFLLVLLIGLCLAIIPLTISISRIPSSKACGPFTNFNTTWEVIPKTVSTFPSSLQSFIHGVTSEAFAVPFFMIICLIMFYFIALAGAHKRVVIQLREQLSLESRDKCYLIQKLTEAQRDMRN
UniProt Q7Z6K1, whole entry, looked up: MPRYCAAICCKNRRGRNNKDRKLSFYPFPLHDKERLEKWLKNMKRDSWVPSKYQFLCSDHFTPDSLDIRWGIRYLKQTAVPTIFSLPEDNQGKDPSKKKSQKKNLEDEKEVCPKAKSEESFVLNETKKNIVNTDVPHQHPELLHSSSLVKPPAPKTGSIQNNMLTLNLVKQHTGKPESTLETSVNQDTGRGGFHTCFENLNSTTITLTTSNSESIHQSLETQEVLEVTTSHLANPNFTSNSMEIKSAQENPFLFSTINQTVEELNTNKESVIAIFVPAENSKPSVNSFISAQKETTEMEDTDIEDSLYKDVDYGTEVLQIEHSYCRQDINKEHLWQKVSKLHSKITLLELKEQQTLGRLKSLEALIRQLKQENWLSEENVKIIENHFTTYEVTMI

Tests used:
Assay in all cases: log2 fold change, soluble protein after heating vs DMSO (PISA); higher = thermal stabilisation; K562 lysate, 10 uM; active = over 0.2 and 3.5 SD of the protein, either way, in both replicates (recomputed)
alvocidib = compound: CN1CC[C@H](c2c(O)cc(O)c3c(=O)cc(-c4ccccc4Cl)oc23)[C@H](O)C1 [alvocidib]
Method in brief: (§1)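 K562 pellets were dounce-homogenised in PBS pH 7.4 with 1 mM MgCl2, and the crude extract at 1 mg/mL protein was treated with 10 μM compound for 30 min. Aliquots were heated for 3 min across 48°C-58°C, pooled, and brought to 0.5% NP-40 at 4°C; soluble protein was the supernatant after 21,000xg for 90 min. Soluble protein was quantified by TMTpro 16plex LC-MS/MS with channel sums equalised, and reported as log2 fold change in thermal stability against DMSO controls, with values from duplicates.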

Tubastatin A = compound: CN1CCc2c(c3ccccc3n2Cc2ccc(C(=O)NO)cc2)C1 [Tubastatin A]
Method in brief: as §1

defactinib = compound: CNC(=O)c1ccc(Nc2ncc(C(F)(F)F)c(NCc3nccnc3N(C)S(C)(=O)=O)n2)cc1 [defactinib]
Method in brief: as §1

[1] = compound: CNc1nc(-c2ccc3c(N)n[nH]c3c2)cc(N2C[C@@H](C(=O)NC3CCCCC3)CC[C@H]2C)n1
Method in brief: as §1

encorafenib = compound: COC(=O)N[C@@H](C)CNc1nccc(-c2cn(C(C)C)nc2-c2cc(Cl)cc(NS(C)(=O)=O)c2F)n1 [encorafenib]
Method in brief: as §1

[2] = compound: COC(=O)[C@H](CCSC)NC(=O)C1=C(C=C(C=C1)NC[C@H](CS)N)C2=CC=CC=C2
Method in brief: as §1

[3] = compound: COc1cc2nc(-c3cc(F)ccc3O)nc(N[C@@H]3CNC[C@H]3C(C)(C)O)c2cc1OC
Method in brief: as §1

lapatinib = compound: CS(=O)(=O)CCNCc1ccc(-c2ccc3ncnc(Nc4ccc(OCc5cccc(F)c5)c(Cl)c4)c3c2)o1 [lapatinib]
Method in brief: as §1

pictilisib = compound: CS(=O)(=O)N1CCN(Cc2cc3nc(-c4cccc5[nH]ncc45)nc(N4CCOCC4)c3s2)CC1 [pictilisib]
Method in brief: as §1

crizotinib = compound: C[C@@H](Oc1cc(-c2cnn(C3CCNCC3)c2)cnc1N)c1c(Cl)ccc(F)c1Cl [crizotinib]
Method in brief: as §1

[4] = compound: C[C@H](C1=CC=C(C=C1)C(=O)NC2=C3C=CNC3=NC=C2)N
Method in brief: as §1

duvelisib = compound: C[C@H](Nc1ncnc2nc[nH]c12)c1cc2cccc(Cl)c2c(=O)n1-c1ccccc1 [duvelisib]
Method in brief: as §1

gandotinib = compound: Cc1cc(Nc2cc(CN3CCOCC3)c3nc(C)c(Cc4ccc(Cl)cc4F)n3n2)n[nH]1 [gandotinib]
Method in brief: as §1

tozasertib = compound: Cc1cc(Nc2cc(N3CCN(C)CC3)nc(Sc3ccc(NC(=O)C4CC4)cc3)n2)n[nH]1 [tozasertib]
Method in brief: as §1

doramapimod = compound: Cc1ccc(-n2nc(C(C)(C)C)cc2NC(=O)Nc2ccc(OCCN3CCOCC3)c3ccccc23)cc1 [doramapimod]
Method in brief: as §1

bafetinib = compound: Cc1ccc(NC(=O)c2ccc(CN3CC[C@H](N(C)C)C3)c(C(F)(F)F)c2)cc1Nc1nccc(-c2cncnc2)n1 [bafetinib]
Method in brief: as §1

[5] = compound: Cc1cccc(CC(=O)N2CCc3c2ccc(-c2cn(C)c4ncnc(N)c24)c3F)n1
Method in brief: as §1

[6] = compound: CNC(=O)C1=CC=CC=C1NC2=NC(=NC=C2Cl)NC3=C(C=C(C=C3)N4CCOCC4)OC
Method in brief: as §1

alisertib = compound: COc1cc(Nc2ncc3c(n2)-c2ccc(Cl)cc2C(c2c(F)cccc2OC)=NC3)ccc1C(=O)O [alisertib]
Method in brief: as §1

gefitinib = compound: COc1cc2ncnc(Nc3ccc(F)c(Cl)c3)c2cc1OCCCN1CCOCC1 [gefitinib]
Method in brief: as §1

Measured: log2 fold change

THAP9 (UniProt Q9H5L6)
active: [4] -0.675
inactive: alvocidib -0.249 | Tubastatin A 0.053 | defactinib -0.067 | [1] 0.476 | encorafenib -0.009 | [2] 0.085 | [3] 0.179 | lapatinib -0.035 | pictilisib -0.154 | crizotinib -0.203 | duvelisib 0.012 | gandotinib 0.429 | tozasertib -0.045 | doramapimod 0.009 | bafetinib -0.007 | [5] 0.323

TMEM138 (UniProt Q9NPI0)
inactive: [6] -0.121 | defactinib 0.084 | [1] 0.01 | encorafenib -0.048 | [2] -0.062 | duvelisib -0.152 | tozasertib -0.103

THAP4 (UniProt Q8WY91)
inactive: alvocidib -0.033 | [4] -0.02 | gandotinib 0.033 | [5] 0.151

TGFBR1 isoform 2 (UniProt P36897)
inactive: [6] 0.156 | [1] -0.004 | encorafenib -0.017 | [2] 0.077 | duvelisib -0.004 | tozasertib 0.022

TMEM183B (UniProt Q1AE95)
inactive: alvocidib 0.004 | Tubastatin A 0.109 | defactinib -0.671 | [4] -0.027 | gandotinib -0.148 | [5] 0.096

TGIF1 (UniProt Q15583)
inactive: [6] 0.067 | crizotinib -0.057 | doramapimod 0.088

TMCC1 (UniProt O94876)
inactive: alvocidib 0 | defactinib 0.113 | [1] -0.132 | encorafenib 0.242 | [2] -0.106 | [4] -0.191 | duvelisib -0.159 | gandotinib 0.406 | tozasertib -0.024 | [5] 0.186

TMC1 (UniProt Q8TDI8)
inactive: Tubastatin A -0.088 | [6] -0.028 | defactinib -0.002 | encorafenib 0.03 | [2] 0.054 | alisertib 0.216 | [3] 0.021 | gefitinib 0.215 | lapatinib -0.134 | crizotinib -0.262 | tozasertib 0.074 | doramapimod 0.252

TMEM120B (UniProt A0PK00)
inactive: [6] -0.022 | defactinib 0.119 | [1] 0.317 | encorafenib 0.036 | [2] 0.12 | [3] 0.023 | lapatinib 0.02 | crizotinib -0.032 | duvelisib -0.068 | tozasertib -0.027 | doramapimod -0.027

TMEM129
inactive: alvocidib -0.021 | [6] -0.028 | [4] 0.127 | gandotinib -0.151 | [5] 0.008

TMEM104 (UniProt Q8NE00)
inactive: alvocidib -0.065 | defactinib -0.156 | pictilisib -0.007 | crizotinib 0.023 | [4] 0.026 | gandotinib -0.001 | doramapimod -0.034 | bafetinib -0.064 | [5] 0.062

TMEM131 (UniProt Q92545)
inactive: alvocidib -0.279 | [4] -0.141 | gandotinib 0.013 | [5] 0.204

THAP7 (UniProt Q9BT49)
inactive: alisertib 0.001 | gefitinib 0

TMC7 (UniProt Q7Z402)
inactive: alvocidib -0.005 | [6] 0.038 | [4] 0.006 | gandotinib 0.028 | [5] -0.142

TLNRD1 (UniProt Q9H1K6)
inactive: Tubastatin A 0.17 | [1] 0.063 | [3] 0.132 | lapatinib 0.008 | pictilisib -0.402 | crizotinib 0.147 | duvelisib 0.032 | doramapimod -0.231 | bafetinib -0.698

THOC2 (UniProt H0Y7U4)
inactive: Tubastatin A 0.121 | [1] -0.042 | [3] 0.039 | lapatinib -0.011 | pictilisib 0.016 | crizotinib 0.011 | duvelisib -0.03 | doramapimod 0.138 | bafetinib -0.051

TMCO3 (UniProt Q6UWJ1)
inactive: alvocidib 0.02 | defactinib 0.107 | encorafenib -0.022 | [2] 0 | pictilisib -0.071 | crizotinib -0.064 | [4] 0.176 | gandotinib -0.169 | tozasertib 0.015 | doramapimod -0.014 | bafetinib 0.144 | [5] -0.089

2 entries picked at random from those above:
THAP7 (UniProt Q9BT49)
inactive: alisertib 0.001 | gefitinib 0

TMCO3 (UniProt Q6UWJ1)
inactive: alvocidib 0.02 | defactinib 0.107 | encorafenib -0.022 | [2] 0 | pictilisib -0.071 | crizotinib -0.064 | [4] 0.176 | gandotinib -0.169 | tozasertib 0.015 | doramapimod -0.014 | bafetinib 0.144 | [5] -0.089

Next records follow.

THAP5 (UniProt Q7Z6K1)
inactive: [1] -0.164 | duvelisib -0.292
